According to patent EP0760376A1 (Kyowa Hakko Kogyo Co., Ltd., priority 1995, dated 1996):

experiment: general procedure: Fmoc solid-phase peptide synthesis; Rink amide-resin or Rink amide-MBHA-resin (Shimadzu synthesizer); p-methyl-BHA-resin (ABI synthesizer); PyBOP/HOBt/NMM; details: whole synthesis, scale 50 mg resin

| Substance | crude mass | isolated mass |
| --- | --- | --- |
| C3H7CO-Leu-Tyr-Arg-Lys-Met-Arg-Leu-Arg-Tyr-Pro-Val-NH-(CH2)11CONH2 | 35.3 mg | 26.4 mg |
| C17H35CO-Leu-Tyr-Arg-Lys-Met-Arg-Leu-Arg-Tyr-Pro-Val-NH-(CH2)11CONH2 | 45.8 mg | 30.8 mg |
| CH3CO-Leu-Tyr-Arg-Lys-Met-Arg-Leu-Arg-Tyr-Pro-Val-NH-(CH2)4CONH2 | 36.5 mg | 6.3 mg |
| CH3CO-Leu-Tyr-Arg-Lys-Met-Arg-Leu-Arg-Tyr-Pro-Val-NH-(CH2)5CONH2 | 40.0 mg | 13.9 mg |
| CH3CO-Leu-Tyr-Arg-Lys-Met-Arg-Leu-Arg-Tyr-Pro-Val-NH-(CH2)6CONH2 | 20.0 mg | 5.0 mg |
| CH3CO-Leu-Tyr-Arg-Lys-Met-Arg-Leu-Arg-Tyr-Pro-Val-NH-(CH2)7CONH2 | 37.8 mg | 10.3 mg |
| CH3CO-Leu-Tyr-Arg-Lys-Met-Arg-Leu-Arg-Tyr-Pro-Val-NH-(CH2)10CONH2 | 43.1 mg | 13.1 mg |
| CH3CO-Leu-Tyr-Arg-Lys-Met-Arg-Leu-Arg-Tyr-Pro-Val-NH-(CH2)11CONH2 | 22.3 mg | 3.9 mg |

same assay, conditions: whole synthesis, scale 60 mg resin

| Substance | isolated mass |
| --- | --- |
| CH3CO-Leu-Tyr-Arg-Lys-Met-Arg-Leu-Arg-Tyr-Pro-Val-NH-(CH2)3CONH2 | 9.5 mg |
